The text below walks through data of US20180155757A1, “IDENTIFICATION OF BACTERIA THAT ARE RESISTANT TO CARBAPENEMS BY MEMBRANE IMPERVIOUSNESS” (BIOMÉRIEUX, priority 2015, published 2018).

SMILES strings stand for the structures.

Data set [1] has as its system Model strains: membrane impermeability. Briefly: Diffusion of indicator carbapenem and PMBN from one and the same Etest strip. In kind it is cell-based.
Data set [2] deals with Model strains: carbapenemase production. The description is as above. Format: cell-based.
The mark [3] stands for this setting: impregnating solution [PMBN] 100 μg/ml.
[4] abbreviates: impregnating solution [PMBN] 200 μg/ml.
The mark [5] stands for this setting: impregnating solution [PMBN] 300 μg/ml.

For `C[C@@H](O)[C@H]1C(=O)N2C(C(=O)O)=C(S[C@@H]3CN[C@H](C(=O)Nc4cccc(C(=O)O)c4)C3)[C@H](C)[C@H]12` [ETP, ertapenem], the “Number of positive strains/number of strains tested” value in data set [1] (setting [3]) is 10/16; in data set [1] (setting [4]), 10/16; in data set [1] (setting [5]), 13/16; in data set [2] (setting [3]) it was 0/6; in data set [2] (setting [4]), 1/6; in data set [2] (setting [5]), 1/6.

For the compound `C[C@@H](O)[C@H]1C(=O)N2C(C(=O)O)=C(S[C@@H]3CN[C@H](C(=O)N(C)C)C3)[C@H](C)[C@H]12` [MP, meropenem], the “Number of positive strains/number of strains tested” value is 11/15 in data set [1] (setting [3]); 13/15 in data set [1] (setting [4]); 14/15 in data set [1] (setting [5]); 0/3 in data set [2] (setting [3]); 0/3 in data set [2] (setting [4]); 0/3 in data set [2] (setting [5]).
